The data set in a line: peptide synthesis. The note with it: hydrochloride.

From patent US7531623B2 (Theravance, Inc., priority 2003, dated 2009) come the findings set out here.

With telavancin, the “crude HPLC purity” value (late stage modification step, HPLC) is given as 76.5% purity. For the same substance, the “final HPLC purity” value (purification step, HPLC) is “HPLC purity 91.3%”. Besides, the step yield result (purification step) was “˜40%”.
Consider “N^van-2-(n-Decylamino)ethyl Vancomycin Hydrochloride”, for which, where the note is “lipidation step, HPLC”, the “crude purity (method not given)” value was “˜85% purity”.
